In the supplement of paper PMC10338343:
± gives the standard deviation. This is a selection; strong and weak results do not stand in their true shares. The uncertainty is large for many entries. This is one part of the list.

Columns and labels:
[1] = test system: MILI (PIWIL2) piRISC loaded with L1MC piRNA (26 nt); test: pre-steady-state target cleavage rate (min^-1); higher = faster piRNA-guided slicing of the target; settings: guide: L1MC piRNA 5'p-UAACUAAAUACUAUGCAAGCUGUAGG
In short: (§1)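 Active affinity-purified piRISC carrying one synthetic guide (1 nM) was mixed with a transcribed, DNA-blocked target RNA library […] in HEPES–potassium acetate buffer at 33 °C for 0–8 or 0–960 min, with or without 500 nM GTSF1 partner protein. Uncleaved targets were then sequenced and normalised to depth and to weakly complementary targets. Three trials were pooled, and k3 was capped at 0.0001 min^-1. A burst-and-steady-state fit was applied to obtain the pre-steady-state cleavage rate.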

[2] = test system: MIWI (PIWIL1) piRISC loaded with L1MC piRNA (30 nt); test: as above; settings: guide: L1MC piRNA 5'p-UAACUAAAUACUAUGCAAGCUGUAGGUCCU
In short: as §1

[3] = test system: EfPiwi piRISC loaded with L1MC piRNA (26 nt); test: pre-steady-state target cleavage rate (min^-1); guide: L1MC piRNA 5'p-UAACUAAAUACUAUGCAAGCUGUAGG; MIWI and MILI are mouse PIWI proteins and EfPiwi is from a freshwater sponge; tags in brackets are library labels; higher = faster piRNA-guided slicing of the target
In short: as §1

[4] = auxiliary factor: none (no GTSF1)
[5] = auxiliary factor: 500 nM Ephydatia muelleri Gtsf1
[6] = auxiliary factor: 500 nM mouse GTSF1
[7] = auxiliary factor: none (no Gtsf1)

Sequence | pre-steady-state target cleavage rate [1, 4] | pre-steady-state target cleavage rate [2, 4] | pre-steady-state target cleavage rate [3, 5] | pre-steady-state target cleavage rate [1, 6] | pre-steady-state target cleavage rate [2, 6] | pre-steady-state target cleavage rate [3, 7]
UCCUGGUAGUGCUUGCAUAGUAUUUUCAAA | 0.000933 ± 0.0054 | 0.00203 ± 0.0029 | 0.00143 ± 0.0039 |  |  | 
UCCUCCUACUCGUUGCAUAGUAUUUACAAA | 0.000851 ± 0.0055 | 0.00126 ± 0.0031 | 0.00139 ± 0.0046 |  |  | 
UCCUGGAUGUCGAAGCUUAGUAUUAAGUUA | 0.000365 ± 0.014 | 0.000553 ± 0.0089 | 0.000348 ± 0.015 |  |  | 
UCCUGGAUGUCGAUGCAAAGUUUUUAGUUA | 0.000997 ± 0.0058 | 0.000527 ± 0.014 | 0.000296 ± 0.015 |  |  | 
UCCUGGAACAGCUUGCUAUGUAUUUAGAAA | 0.0012 ± 0.004 | 0.000498 ± 0.0049 | 0.00139 ± 0.0067 |  |  | 
UCCUGGAUGUCGUUGCAUAGUUUUAAGUUA |  |  | 0.000325 ± 0.013 | 0.00331 ± 0.0048 | 0.000342 ± 0.028 | 
UCCUGGAACACGUUGCAUAGUAUUUAGAAA | 0.00105 ± 0.0072 | 0.00114 ± 0.0058 | 0.00137 ± 0.0034 |  |  | 
UCCUGGAUCAGCUUCCAUAGUAUUUUCAAA | 0.000252 ± 0.025 | 0.000202 ± 0.012 | 0.000752 ± 0.0065 |  |  | 
UCCUGGAUGUCGAAGCAUAGAAUUAAGUUA | 0.000207 ± 0.022 | 0.000191 ± 0.023 | 0.000373 ± 0.016 |  |  | 
UCCUGGAUGUCCUUGGUAAGUAUUUAGUUA | 0.00115 ± 0.0057 | 0.000892 ± 0.0094 | 0.000287 ± 0.012 |  |  | 
UCCUGGAUGUCCUUGCAAAGUAUUUUGUUA | 0.000809 ± 0.0083 | 0.000942 ± 0.0086 |  |  |  | 0.000134 ± 0.029
UCCUGGAUGUCGAAGCAAAGUAUUUUGUUA | 0.000333 ± 0.014 | 0.000532 ± 0.014 |  |  |  | 0.000123 ± 0.067
UCCUGGAUGUCGAACCAAAGUUUUUAGUUA | 0.000169 ± 0.012 | 0.000308 ± 0.016 |  |  |  | 0.000305 ± 0.017
UCCUGCUACAGCUUGCUAAGUAUUUUCAAA | 0.000646 ± 0.0085 | 0.000648 ± 0.01 | 0.00125 ± 0.0064 |  |  | 
UCCUGGAUGUCGAACCAAUCUAUUUAGUUA |  | 0.000101 ± 0.023 | 0.000227 ± 0.02 | 0.000112 ± 0.015 |  | 
UCCUGCUACAGCUUCCAUAGUAUUUUCAAA | 0.000711 ± 0.0083 | 0.000241 ± 0.019 |  |  |  | 0.000321 ± 0.016
UCCUGGUACAGCUUGCAUAGAAUUUACAAA | 0.000582 ± 0.014 | 0.000447 ± 0.0076 | 0.00092 ± 0.0046 |  |  | 

Two entries drawn at random from those above:
Sequence | pre-steady-state target cleavage rate [1, 4] | pre-steady-state target cleavage rate [2, 4] | pre-steady-state target cleavage rate [3, 5] | pre-steady-state target cleavage rate [1, 6] | pre-steady-state target cleavage rate [2, 6] | pre-steady-state target cleavage rate [3, 7]
UCCUGGAUCAGCUUCCAUAGUAUUUUCAAA | 0.000252 ± 0.025 | 0.000202 ± 0.012 | 0.000752 ± 0.0065 |  |  | 
UCCUGGAUGUCCUUGCAAAGUAUUUUGUUA | 0.000809 ± 0.0083 | 0.000942 ± 0.0086 |  |  |  | 0.000134 ± 0.029
